Results are given in words; binding and its absence hold for the method and conditions named. In cells and extracts the contact can be indirect. Here binding means that the protein was enriched with, or labelled near, the bait; the list need not be complete.

The chains behind the UniProt entries cited, without tags or fusion partners. Residues count along the entry.
UniProt P37231, residues 29-505: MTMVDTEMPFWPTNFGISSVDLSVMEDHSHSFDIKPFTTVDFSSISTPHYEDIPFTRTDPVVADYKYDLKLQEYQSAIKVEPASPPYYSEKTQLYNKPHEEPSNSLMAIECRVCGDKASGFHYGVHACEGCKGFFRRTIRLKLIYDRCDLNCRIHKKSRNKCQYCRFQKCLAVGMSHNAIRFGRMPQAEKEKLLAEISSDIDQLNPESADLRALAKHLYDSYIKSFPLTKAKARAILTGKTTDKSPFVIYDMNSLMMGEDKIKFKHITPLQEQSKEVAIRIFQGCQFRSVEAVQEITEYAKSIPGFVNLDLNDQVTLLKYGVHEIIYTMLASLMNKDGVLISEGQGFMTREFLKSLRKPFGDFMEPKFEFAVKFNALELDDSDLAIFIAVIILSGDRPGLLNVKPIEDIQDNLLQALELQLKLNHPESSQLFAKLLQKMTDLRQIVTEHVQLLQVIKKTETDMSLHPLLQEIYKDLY
UniProt P99024: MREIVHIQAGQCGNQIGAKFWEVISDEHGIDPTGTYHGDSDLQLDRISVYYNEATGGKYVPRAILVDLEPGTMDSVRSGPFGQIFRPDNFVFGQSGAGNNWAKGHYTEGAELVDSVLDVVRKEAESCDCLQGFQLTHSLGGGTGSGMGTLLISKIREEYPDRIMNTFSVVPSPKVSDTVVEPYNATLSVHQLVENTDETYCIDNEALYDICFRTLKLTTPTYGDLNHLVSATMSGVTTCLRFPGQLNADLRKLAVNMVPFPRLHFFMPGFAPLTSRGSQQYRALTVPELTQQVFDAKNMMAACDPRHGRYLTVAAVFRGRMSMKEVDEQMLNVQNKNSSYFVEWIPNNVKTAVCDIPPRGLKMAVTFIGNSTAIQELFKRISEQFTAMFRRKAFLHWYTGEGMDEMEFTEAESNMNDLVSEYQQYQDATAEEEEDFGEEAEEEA

Results on 1 substance are retold here after paper PMC7350077.

The target in the assay is N- and C-terminally HA-tagged human peroxisome proliferator-activated receptor gamma (hPPARγ) (human) (UniProt P37231). Nature of the assay: affinity purification with mass spectrometry; HA-beads immunoprecipitation of HA-tagged hPPARγ from J774A.1 lysates (500 mM NaCl, 1% NP-40, 0.5% deoxycholate, 0.1% SDS, sonicated; overnight at 4°C); SDS-PAGE, gel piece of about 58 kDa ± 3 kDa cut out, LysC digestion, LC/MS; cells untreated or treated with LPS/IFNγ 4 h, IL4 4 h, H2O2 15 min, TPA 30 min; LC/MS data reanalysed for coimmunoprecipitated proteins.

Turning to “tubulin β-5 chain (TUBB5) (from UniProt P99024 1-444)”, the binding entry is “binds”.
